This test deals with Kinesin family member 5B (human (endogenous in A549 and SK-N-BE(2)C)) (UniProt P33176). Put plainly: co-IP.

By UniProt entry, the sequences of proteins in these tests, tags left out.
UniProt P33176: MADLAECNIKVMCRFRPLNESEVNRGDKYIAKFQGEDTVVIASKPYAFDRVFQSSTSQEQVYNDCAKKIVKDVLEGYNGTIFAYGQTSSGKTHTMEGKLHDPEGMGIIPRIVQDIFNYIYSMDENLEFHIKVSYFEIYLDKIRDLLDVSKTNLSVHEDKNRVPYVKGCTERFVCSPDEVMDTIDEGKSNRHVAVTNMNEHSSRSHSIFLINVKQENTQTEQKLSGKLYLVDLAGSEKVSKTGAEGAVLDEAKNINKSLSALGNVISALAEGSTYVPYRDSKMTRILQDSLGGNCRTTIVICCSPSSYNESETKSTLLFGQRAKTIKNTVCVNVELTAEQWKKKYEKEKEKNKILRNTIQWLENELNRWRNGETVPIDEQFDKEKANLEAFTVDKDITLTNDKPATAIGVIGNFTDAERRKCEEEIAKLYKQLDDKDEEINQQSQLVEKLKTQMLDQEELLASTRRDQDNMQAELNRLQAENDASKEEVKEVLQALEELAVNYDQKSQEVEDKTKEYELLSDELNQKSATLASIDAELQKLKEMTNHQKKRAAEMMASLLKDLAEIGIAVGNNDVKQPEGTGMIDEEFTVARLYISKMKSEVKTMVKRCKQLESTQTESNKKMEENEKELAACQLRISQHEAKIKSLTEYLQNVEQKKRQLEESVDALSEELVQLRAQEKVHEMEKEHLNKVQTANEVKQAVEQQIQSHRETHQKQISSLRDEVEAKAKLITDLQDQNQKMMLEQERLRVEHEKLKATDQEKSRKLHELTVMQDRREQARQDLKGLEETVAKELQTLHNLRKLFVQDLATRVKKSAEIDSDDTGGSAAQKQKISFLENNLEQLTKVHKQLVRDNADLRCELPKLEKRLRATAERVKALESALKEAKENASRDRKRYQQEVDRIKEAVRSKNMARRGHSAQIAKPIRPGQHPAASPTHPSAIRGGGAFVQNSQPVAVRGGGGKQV
UniProt O00429: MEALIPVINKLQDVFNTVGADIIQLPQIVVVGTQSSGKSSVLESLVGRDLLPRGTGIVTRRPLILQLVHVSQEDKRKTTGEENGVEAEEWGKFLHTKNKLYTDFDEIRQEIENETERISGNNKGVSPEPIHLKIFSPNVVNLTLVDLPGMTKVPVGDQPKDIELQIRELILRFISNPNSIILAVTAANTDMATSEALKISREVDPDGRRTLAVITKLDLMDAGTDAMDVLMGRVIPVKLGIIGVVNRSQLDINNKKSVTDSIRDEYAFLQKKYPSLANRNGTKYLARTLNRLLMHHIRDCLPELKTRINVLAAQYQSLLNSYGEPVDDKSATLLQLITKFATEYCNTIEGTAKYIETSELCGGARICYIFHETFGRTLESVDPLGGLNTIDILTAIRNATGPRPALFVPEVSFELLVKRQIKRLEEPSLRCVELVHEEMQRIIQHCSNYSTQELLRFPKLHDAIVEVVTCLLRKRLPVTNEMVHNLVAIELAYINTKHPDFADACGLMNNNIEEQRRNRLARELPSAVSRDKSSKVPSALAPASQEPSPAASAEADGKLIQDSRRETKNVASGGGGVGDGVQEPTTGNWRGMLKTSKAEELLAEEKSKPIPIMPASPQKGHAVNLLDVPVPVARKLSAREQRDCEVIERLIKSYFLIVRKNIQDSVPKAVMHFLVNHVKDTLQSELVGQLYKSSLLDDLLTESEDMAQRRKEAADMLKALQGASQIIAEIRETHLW

Results are given in words; binding and its absence hold for the method and conditions named. Binding seen in cells or lysates may run through a third protein. Some binding calls cover weakened binding; strength is not graded here.

With “Dynamin-related protein 1 (from UniProt O00429 1-736)”, the binding entry was “binds”.
